Here are results for 17 molecules from PubChem BioAssay AID330 (DTP/NCI, 2004).

The list is a part of this screen's results and no random one: it is rich in T/C values a quarter to a half above the control, in often repeated tests (any T/C) and in doses without a T/C. Further doses and runs are listed elsewhere. T/C is the treated group as % of the vehicle group. Some entries give survivors of the animals treated and no T/C: the source files T/C as zero there, which appears to mark a toxic dose or a test without result, not a measured value. Some doses without a T/C left all or most animals alive at the check, yet need not have been tolerated: survival well below the control is almost never listed, so the zero probably covers shortened survival too. Survivors were counted at the toxicity check, usually on the fifth day, unless a day is given; later deaths do not show. Schedule codes are those of the source, taken here to give the interval after Q, in days (D) or hours (H), and the number of doses after X. Some doses were run more than once; the results are listed from low to high. Marks such as (2×) count equal records among those shown. For survival time, this PubChem deposit counts one and a half times the control or more as active, and values a quarter to a half above the control carry no call in these data; other NCI protocols may use other cut-offs. Some T/C values are followed by the survivors on the day toxicity was checked, most often the fifth; where none is given, no animal had died by that day.

For this assay, the system named is P388 leukemia ip, CD2F1 mice, survival T/C. Nature of the assay: NCI In Vivo Anticancer Drug Screen. Data for tumor model P388 Leukemia (intraperitoneal) in CD2F1 (CDF1) mice. Particulars: T/C endpoint: median survival time, higher T/C = longer survival.
[1] abbreviates: dose: 125.0 mg/kg/injection, schedule: Q01DX001 (ip), vehicle: water.
[2] abbreviates: dose: 200.0 mg/kg/injection, schedule: Q01DX009 (ip), vehicle: Klucel (hydroxypropylcellulose) (HPC).
[3] abbreviates: dose: 100.0 mg/kg/injection, schedule: Q01DX009 (ip), vehicle: saline.
[4] abbreviates: dose: 200.0 mg/kg/injection, schedule: Q01DX009 (ip), vehicle: saline.
[5] abbreviates: dose: 400.0 mg/kg/injection, schedule: Q04DX003 (ip), vehicle: Klucel (hydroxypropylcellulose) (HPC).

In the case of `NCCCN=c1ccc2c3c1c(O)c1c(O)ccc(=O)c1c3[nH]n2CCNCCO`, the T/C by setting is: (dose: 25.0 mg/kg/injection, schedule: Q01DX001 (ip), vehicle: water, evaluated on day 30) 213 % of control (2×); (dose: 25.0 mg/kg/injection, schedule: Q01DX001 (ip), vehicle: water, evaluated on day 45) 237 (2×), 250 (2×), 305 % of control (2×); (dose: 25.0 mg/kg/injection, schedule: Q01DX001 (ip), vehicle: water, evaluated on day 60) 238 (2×), 270 (2×), 294 % of control (2×); (dose: 37.0 mg/kg/injection, schedule: Q01DX001 (ip), vehicle: water, evaluated on day 30) 227 % of control [9 of 10 alive] (2×); (dose: 37.0 mg/kg/injection, schedule: Q01DX001 (ip), vehicle: water, evaluated on day 45) 263 (2×), 275 (2×), 330 [9 of 10 alive] (2×), 385 % of control (2×); (dose: 37.0 mg/kg/injection, schedule: Q01DX001 (ip), vehicle: water, evaluated on day 60) 235, 245, 265, 284 (2×), 305 (2×), 326 (2×), 366, 385 % of control (2×). The T/C is 291 % of control [9 of 10 alive] (2×) (dose: 56.0 mg/kg/injection, schedule: Q01DX001 (ip), vehicle: water, evaluated on day 30); 255 [9 of 10 alive] (2×), 290 (2×), 354 (2×), 403 % of control (2×) (dose: 56.0 mg/kg/injection, schedule: Q01DX001 (ip), vehicle: water, evaluated on day 45); 245, 264, 285 [9 of 10 alive], 346 (2×), 347 (2×), 367 (2×), 435, 588 % of control (2×) (dose: 56.0 mg/kg/injection, schedule: Q01DX001 (ip), vehicle: water, evaluated on day 60); 194 % of control [7 of 10 alive] (2×) (dose: 85.0 mg/kg/injection, schedule: Q01DX001 (ip), vehicle: water, evaluated on day 30); 264 [7 of 10 alive] (2×), 412 (2×), 450 (2×), 468 % of control (2×) (dose: 85.0 mg/kg/injection, schedule: Q01DX001 (ip), vehicle: water, evaluated on day 45); 333, 489 (2×), 509, 588 (2×), 594, 612, 625 (2×), 631 % of control (2×) (dose: 85.0 mg/kg/injection, schedule: Q01DX001 (ip), vehicle: water, evaluated on day 60). For the same molecule, the T/C (dose: 100.0 mg/kg/injection, schedule: Q04DX002 (ip), vehicle: saline) is 131 % of control [4 of 5 alive] and the T/C under setting [1] is 588 % of control [8 of 10 alive] (2×). Besides, the survivor count reads like this: (dose: 75.0 mg/kg/injection, schedule: Q04DX002 (ip), vehicle: water) 3 of 8; (dose: 100.0 mg/kg/injection, schedule: Q04DX002 (ip), vehicle: water) 2 of 5; under setting [1], 2 of 10, 4 of 10 (2×), 5 of 10, 6 of 10.
Turning to `NSC(=S)NCc1ccco1`, the survivor count (dose: 400.0 mg/kg/injection, schedule: Q01DX005 (ip), vehicle: Klucel (hydroxypropylcellulose) (HPC)) is listed as 0 of 5.
Consider `C[n+]1cccc(NC(=O)c2ccccc2)c1`, for which the survivor count reads like this: (dose: 60.0 mg/kg/injection, schedule: Q01DX005 (ip), vehicle: saline with Tween-80) 1 of 6; (dose: 120.0 mg/kg/injection, schedule: Q01DX005 (ip), vehicle: saline with Tween-80) 0 of 6; (dose: 240.0 mg/kg/injection, schedule: Q01DX005 (ip), vehicle: saline with Tween-80) 0 of 6.
Consider `Cc1ccc(N=Cc2cccs2)cc1`, for which the survivor count under setting [2] was 2 of 6.
Consider `Cc1ccn2ncnc2c1`, for which, for the setting “dose: 400.0 mg/kg/injection, schedule: Q01DX009 (ip), vehicle: saline with Tween-80”, the survivor count is reported as 1 of 6.
In the case of `c1ccc2c(CC3=NCCN3)noc2c1`, the survivor count is, setting by setting: under setting [3], 0 of 6; under setting [4], 0 of 6.
On to `O=c1[nH]c2cc([N+](=O)[O-])ccc2nc1/C=C(\O)c1cccc([N+](=O)[O-])c1`, for which the survivor count (dose: 120.0 mg/kg/injection, schedule: Q01DX005 (ip), vehicle: Klucel + Tween-80) is given as 6 of 6.
On to `C(=N\Nc1nn[nH]n1)/c1ccccc1`, for which, for the setting “dose: 400.0 mg/kg/injection, schedule: Q01DX009 (ip), vehicle: suspension in saline”, the survivor count is 3 of 6.
For `C=C1C(=O)O[C@H]2C[C@@H]3O[C@@H]3[C@@H]12`, the survivor count (dose: 25.0 mg/kg/injection, schedule: Q01DX009 (ip), vehicle: water) is given as 0 of 6.
In the case of `CC1=C/C(O)CC(=O)Cc2nc(co2)C(=O)N2CCC=C2C(=O)OC(C(C)C)C(C)/C=C\C(=O)NC/C=C\1` (stereo unspecified), the T/C (dose: 100.0 mg/kg/injection, schedule: Q01DX005 (ip), vehicle: Klucel (hydroxypropylcellulose) (HPC)) was 126 % of control.
For `FC(F)(F)C1=C(C(F)(F)F)SP23(OCCC(CO2)O3)S1` (stereo unspecified), the T/C is, setting by setting: (dose: 50.0 mg/kg/injection, schedule: Q01DX009 (ip), vehicle: Klucel (hydroxypropylcellulose) (HPC)) 130 % of control; (dose: 100.0 mg/kg/injection, schedule: Q01DX009 (ip), vehicle: Klucel (hydroxypropylcellulose) (HPC)) 130 % of control. Besides, the survivor count under setting [2] was 1 of 6.
In the case of `CCCCCCCCCCC(O)C(=O)O` (stereo unspecified), the survivor count (dose: 200.0 mg/kg/injection, schedule: Q01DX009 (ip), vehicle: saline with Tween-80) was 4 of 6.
Consider `CCOC(=O)[C]1([Sn]([CH3])([CH3])[CH3])N=NC(C(=O)OC)=C1C(=O)OC` (stereo unspecified), for which the survivor count is on record as 6 of 6 (dose: 3.12 mg/kg/injection, schedule: Q01DX009 (ip), vehicle: saline); 1 of 6 (dose: 6.25 mg/kg/injection, schedule: Q01DX009 (ip), vehicle: saline); 0 of 6 (dose: 12.5 mg/kg/injection, schedule: Q01DX009 (ip), vehicle: saline); 0 of 6 (dose: 25.0 mg/kg/injection, schedule: Q01DX009 (ip), vehicle: saline); 0 of 6 (dose: 50.0 mg/kg/injection, schedule: Q01DX009 (ip), vehicle: saline); 0 of 6 under setting [3]. In addition, the survivor count under setting [4] is listed as 0 of 6.
As for `CC1CN(Cc2cc(C(C)(C)c3cc(Cl)c(O)c(CN4CC(C)OC(C)C4)c3)cc(Cl)c2O)CC(C)O1` (stereo unspecified), the survivor count is recorded as 6 of 6 (dose: 100.0 mg/kg/injection, schedule: Q01DX005 (ip), vehicle: saline with Tween-80) and 6 of 6 (dose: 200.0 mg/kg/injection, schedule: Q01DX005 (ip), vehicle: saline with Tween-80).
Turning to `O=C1C=CC(=O)N1c1ccc(Cl)cc1`, the survivor count was 0 of 6 (dose: 16.0 mg/kg/injection, schedule: Q01DX009 (ip), vehicle: Klucel (hydroxypropylcellulose) (HPC)) and 3 of 6 (dose: 32.0 mg/kg/injection, schedule: Q01DX009 (ip), vehicle: Klucel (hydroxypropylcellulose) (HPC)).
Take `O=C(c1ccccc1)c1cnc2ccccn12`: the survivor count under setting [5] is listed as 0 of 6.
Same read-out and setting: with `CN(C)P1(=O)OCC(C(C)(C)C)CN1c1ccccc1` (stereo unspecified) the figure was 0 of 6.
